Laboratory results reported in US4657891A, “Diuretic peptide, and production and use thereof” (Suntory Limited, priority 1984, dated 1987).

What was measured:
Male rats [1] = test: Diuretic and natriuretic test in anesthetized rats, urine collected before and 5 minutes after jugular vein injection (Table 2); assay type: in vivo, rat; conditions: furosemide 1.21 μmole (group IV)
Experimental: Male rats weighing 300 to 400 grams were anesthetized by intraperitoneal administration of pentobarbital at a dosage of 60 mg/kg, and used for tests of the β-rANP according to the method described in Life Sciences, Vol. 28, pp 89-94.
To keep the respiratory tract open, a tracheal cannula (PE-240 Clay-Adams) was inserted into the trachea. An arterial cannula (PE-50) was inserted into a femoral artery for measurement of the blood pressure, and a venous cannula was inserted into a femoral vein for the administration of Ringer's solution. 1.2 ml of Ringer's solution was infused at a flow rate of 1.2 ml/hour.
A bladder cannula made of silastic tube with a inner diameter of 0.02 inches and an outer diameter of 0.037 inches was inserted into the bladder, and via the cannula, a urine sample was collected into a test tube. The collection of urine was carried out for 30 minutes before administration of the test compound, and every five minutes after the administration.
A predetermined amount of the test compound β-rANP was dissolved in 50 μl of sterilized physiological saline with 5 μg of bacitracin, and the solution was injected into the jugular vein.
The amount of β-rANP administered was 0.4 n mole (group II), or 0.8 n mole (group III). The control group (group I) was administered 50 μl of physiological saline containing only bacitracin. For comparison, group IV received 50 μl of physiological saline containing bacitracin and 1.21μ mole of furosemide, which is a known natriuretic agent.
Groups I to III each consisted of three animals, and group IV consisted of four animals.

Male rats [2] = test: Another test: relative amounts of urine, Na+, K+, Cl- for 30 minutes before and after administration (Table 3); assay type: in vivo, rat; conditions: Furosemide 0.3 μmol
[3] = A: 5 minutes after administration
[4] = B: 30 minutes before administration

## NS(=O)(=O)c1cc(C(=O)O)c(NCc2ccco2)cc1Cl [Furosemide, furosemide]
Male rats [1]; [3]
  Cl^- Excretion A: 40242 ± 6859 n eq/min
  K^+ Excretion A: 6897 ± 392 n eq/min
  Na^+ Excretion A: 20018 ± 2990 n eq/min
Male rats [1]; [4]
  Cl^- Excretion B: 1708 ± 334 n eq/min
  K^+ Excretion B: 1945 ± 465 n eq/min
  Na^+ Excretion B: 1134 ± 283 n eq/min
Male rats [1]; urine, A: 5 minutes after administration
  Na/K ratio A: 2.90
Male rats [1]; urine, B: 30 minutes before administration
  Na/K ratio B: 0.58
Male rats [2]
  Cl^- Excretion, percentage after relating to before: 440 ± 129%
  K^+ Excretion, percentage after relating to before: 119 ± 13%
  Na^+ Excretion, percentage after relating to before: 470 ± 154%
